Measurements reported in PubChem BioAssay AID1259424 (University of Nebraska Medical Center, 2018).
Here is an unselected part of about 14,000 reagents tested. 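Higher correlation or smaller distance means closer resemblance to KSR1 loss; control wells, including KSR1 knockdowns, recur on many plates.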 Not all columns of the deposit are shown. Not stated in the record: the time to read-out.

Assay: 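Seek colon cancer survival genes behaving like KSR1, using a six-gene signature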 (primary screen)
Cell system: human HCT116 colon cancer cells
Reagents: siRNA pool against human genes, 50 nM
Detection: 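Log2 levels of six mRNAs (branched-DNA multiplex), adjusted by two reference genes and the non-targeting median, then scored against the average KSR1 knockdown pattern as Pearson r and euclidean distance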
Reading the numbers: mean correlation with KSR1 profile: higher = expression change more like KSR1 knockdown; mean distance from KSR1 profile: higher = expression change less like KSR1 knockdown

{"gene knocked down":"CDH11 (GeneID 1009)","mean correlation with KSR1 profile":0.163,"mean distance from KSR1 profile":1.32}
{"gene knocked down":"IFNK (GeneID 56832)","mean correlation with KSR1 profile":-0.583,"mean distance from KSR1 profile":4.51}
{"gene knocked down":"ST14 (GeneID 6768)","mean correlation with KSR1 profile":0.461,"mean distance from KSR1 profile":2.48}
{"gene knocked down":"RSAD2 (GeneID 91543)","mean correlation with KSR1 profile":-0.395,"mean distance from KSR1 profile":2.03}
{"gene knocked down":"FAM110A (GeneID 83541)","mean correlation with KSR1 profile":0.478,"mean distance from KSR1 profile":2.52}
{"gene knocked down":"TRIM32 (GeneID 22954)","mean correlation with KSR1 profile":0.0667,"mean distance from KSR1 profile":2.47}
{"gene knocked down":"CRYBA1 (GeneID 1411)","mean correlation with KSR1 profile":-0.289,"mean distance from KSR1 profile":1.97}
{"gene knocked down":"INSL6 (GeneID 11172)","mean correlation with KSR1 profile":-0.493,"mean distance from KSR1 profile":1.53}
{"gene knocked down":"RHPN2 (GeneID 85415)","mean correlation with KSR1 profile":0.256,"mean distance from KSR1 profile":3.65}
{"gene knocked down":"PMEPA1 (GeneID 56937)","mean correlation with KSR1 profile":-0.376,"mean distance from KSR1 profile":3.5}
{"gene knocked down":"RPP40 (GeneID 10799)","mean correlation with KSR1 profile":-0.598,"mean distance from KSR1 profile":1.74}
{"gene knocked down":"SLC2A11 (GeneID 66035)","mean correlation with KSR1 profile":-0.346,"mean distance from KSR1 profile":7.95}
{"gene knocked down":"DNAJC3 (GeneID 5611)","mean correlation with KSR1 profile":0.0484,"mean distance from KSR1 profile":1.66}
{"gene knocked down":"PLIN2 (GeneID 123)","mean correlation with KSR1 profile":-0.364,"mean distance from KSR1 profile":1.9}
{"gene knocked down":"DCTN3 (GeneID 11258)","mean correlation with KSR1 profile":0.302,"mean distance from KSR1 profile":1.36}
{"gene knocked down":"STAG3 (GeneID 10734)","mean correlation with KSR1 profile":0.302,"mean distance from KSR1 profile":1.66}
{"gene knocked down":"PHF6 (GeneID 84295)","mean correlation with KSR1 profile":0.562,"mean distance from KSR1 profile":1.41}
{"gene knocked down":"MYOD1 (GeneID 4654)","mean correlation with KSR1 profile":0.294,"mean distance from KSR1 profile":2.76}
{"gene knocked down":"PRPS1 (GeneID 5631)","mean correlation with KSR1 profile":-0.125,"mean distance from KSR1 profile":2.77}
{"gene knocked down":"GPN1 (GeneID 11321)","mean correlation with KSR1 profile":-0.261,"mean distance from KSR1 profile":3.03}
{"gene knocked down":"SYNM (GeneID 23336)","mean correlation with KSR1 profile":-0.0187,"mean distance from KSR1 profile":2.54}
{"gene knocked down":"UBQLN1 (GeneID 29979)","mean correlation with KSR1 profile":0.675,"mean distance from KSR1 profile":0.876}
{"gene knocked down":"TMIGD3 (GeneID 57413)","mean correlation with KSR1 profile":0.655,"mean distance from KSR1 profile":1.34}
{"gene knocked down":"POP5 (GeneID 51367)","mean correlation with KSR1 profile":0.246,"mean distance from KSR1 profile":2.94}
{"gene knocked down":"SLC6A4 (GeneID 6532)","mean correlation with KSR1 profile":0.18,"mean distance from KSR1 profile":1.81}
{"gene knocked down":"NCAPD2 (GeneID 9918)","mean correlation with KSR1 profile":-0.735,"mean distance from KSR1 profile":1.63}
{"gene knocked down":"PSME3 (GeneID 10197)","mean correlation with KSR1 profile":-0.0572,"mean distance from KSR1 profile":2.39}
{"gene knocked down":"YEATS2 (GeneID 55689)","mean correlation with KSR1 profile":-0.113,"mean distance from KSR1 profile":2.9}
{"gene knocked down":"FSCB (GeneID 84075)","mean correlation with KSR1 profile":0.802,"mean distance from KSR1 profile":2.25}
{"gene knocked down":"SDAD1 (GeneID 55153)","mean correlation with KSR1 profile":-0.56,"mean distance from KSR1 profile":3.25}
{"gene knocked down":"NOP10 (GeneID 55505)","mean correlation with KSR1 profile":-0.0316,"mean distance from KSR1 profile":1.92}
{"gene knocked down":"PDHB (GeneID 5162)","mean correlation with KSR1 profile":-0.227,"mean distance from KSR1 profile":1.64}
{"gene knocked down":"MYORG (GeneID 57462)","mean correlation with KSR1 profile":-0.693,"mean distance from KSR1 profile":3.58}
{"gene knocked down":"SCN3B (GeneID 55800)","mean correlation with KSR1 profile":0.527,"mean distance from KSR1 profile":1.81}
{"gene knocked down":"ATP1A2 (GeneID 477)","mean correlation with KSR1 profile":0.424,"mean distance from KSR1 profile":1.2}
{"gene knocked down":"CLC (GeneID 1178)","mean correlation with KSR1 profile":0.0941,"mean distance from KSR1 profile":2.19}

Limited to “mean distance from KSR1 profile” (2 entries from above):
PHF6 (GeneID 84295)	1.41
MYOD1 (GeneID 4654)	2.76
